Results are given in words; binding and its absence hold for the method and conditions named. In cells and extracts the contact can be indirect. Here binding means that the protein was enriched with, or labelled near, the bait; the list need not be complete. Where a sequence is shown, tags or fusion partners need not be part of it.
Biological target: T1, GFP-OsATG8a (rice (Oryza sativa)) (UniProt Q69RC4)
T1 sequence: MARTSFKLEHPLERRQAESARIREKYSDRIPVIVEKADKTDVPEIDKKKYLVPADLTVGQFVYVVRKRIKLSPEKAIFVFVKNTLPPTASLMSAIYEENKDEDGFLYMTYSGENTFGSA
Experiment: affinity purification with mass spectrometry; GFP-Trap A beads with extracts of transgenic rice seedlings of the three GFP-OsATG8a lines, GFP control lines subtracted; seedlings in Hoagland's solution (mock) or with 150 mM NaCl for 1 h; 50 mM Tris-HCl pH 7.5, 150 mM NaCl, 20% glycerol, 1 mM MgCl2, NP-40; 4°C, 2-3 h

The chains behind the UniProt entries cited, without tags or fusion partners. Where a name states a change or a piece, a line headed by the entry shows the natural chain unless it says otherwise.
UniProt Q0JBY9: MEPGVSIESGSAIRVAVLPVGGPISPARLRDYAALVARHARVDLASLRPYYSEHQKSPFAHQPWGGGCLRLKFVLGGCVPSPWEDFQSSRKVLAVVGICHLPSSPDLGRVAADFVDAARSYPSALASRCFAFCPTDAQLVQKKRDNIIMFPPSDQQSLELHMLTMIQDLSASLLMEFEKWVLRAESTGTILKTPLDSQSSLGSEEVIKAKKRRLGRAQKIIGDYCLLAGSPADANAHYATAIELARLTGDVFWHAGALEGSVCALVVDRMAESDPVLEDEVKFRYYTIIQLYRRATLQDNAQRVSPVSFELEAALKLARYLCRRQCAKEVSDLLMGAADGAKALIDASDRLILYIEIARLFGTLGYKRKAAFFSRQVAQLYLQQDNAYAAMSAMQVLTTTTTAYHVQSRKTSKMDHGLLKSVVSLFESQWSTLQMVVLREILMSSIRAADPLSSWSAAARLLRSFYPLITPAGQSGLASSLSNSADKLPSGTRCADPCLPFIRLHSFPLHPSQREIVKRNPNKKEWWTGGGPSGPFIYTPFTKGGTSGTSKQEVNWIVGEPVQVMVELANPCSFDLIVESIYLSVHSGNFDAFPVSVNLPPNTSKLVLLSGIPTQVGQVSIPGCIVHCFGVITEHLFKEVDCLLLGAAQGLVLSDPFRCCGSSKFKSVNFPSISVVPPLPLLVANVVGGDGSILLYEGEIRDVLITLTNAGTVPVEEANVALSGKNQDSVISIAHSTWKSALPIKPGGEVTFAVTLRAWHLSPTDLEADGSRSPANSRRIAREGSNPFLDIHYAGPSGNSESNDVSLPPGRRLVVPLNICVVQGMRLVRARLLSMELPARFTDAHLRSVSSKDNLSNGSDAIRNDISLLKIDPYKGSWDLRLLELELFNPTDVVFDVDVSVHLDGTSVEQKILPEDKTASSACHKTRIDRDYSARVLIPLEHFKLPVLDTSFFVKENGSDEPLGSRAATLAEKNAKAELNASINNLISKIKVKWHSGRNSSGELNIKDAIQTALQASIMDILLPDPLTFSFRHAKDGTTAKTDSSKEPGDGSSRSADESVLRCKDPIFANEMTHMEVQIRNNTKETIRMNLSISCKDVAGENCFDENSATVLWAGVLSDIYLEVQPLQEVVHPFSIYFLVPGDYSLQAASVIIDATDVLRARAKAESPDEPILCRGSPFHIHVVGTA
UniProt Q9ST27: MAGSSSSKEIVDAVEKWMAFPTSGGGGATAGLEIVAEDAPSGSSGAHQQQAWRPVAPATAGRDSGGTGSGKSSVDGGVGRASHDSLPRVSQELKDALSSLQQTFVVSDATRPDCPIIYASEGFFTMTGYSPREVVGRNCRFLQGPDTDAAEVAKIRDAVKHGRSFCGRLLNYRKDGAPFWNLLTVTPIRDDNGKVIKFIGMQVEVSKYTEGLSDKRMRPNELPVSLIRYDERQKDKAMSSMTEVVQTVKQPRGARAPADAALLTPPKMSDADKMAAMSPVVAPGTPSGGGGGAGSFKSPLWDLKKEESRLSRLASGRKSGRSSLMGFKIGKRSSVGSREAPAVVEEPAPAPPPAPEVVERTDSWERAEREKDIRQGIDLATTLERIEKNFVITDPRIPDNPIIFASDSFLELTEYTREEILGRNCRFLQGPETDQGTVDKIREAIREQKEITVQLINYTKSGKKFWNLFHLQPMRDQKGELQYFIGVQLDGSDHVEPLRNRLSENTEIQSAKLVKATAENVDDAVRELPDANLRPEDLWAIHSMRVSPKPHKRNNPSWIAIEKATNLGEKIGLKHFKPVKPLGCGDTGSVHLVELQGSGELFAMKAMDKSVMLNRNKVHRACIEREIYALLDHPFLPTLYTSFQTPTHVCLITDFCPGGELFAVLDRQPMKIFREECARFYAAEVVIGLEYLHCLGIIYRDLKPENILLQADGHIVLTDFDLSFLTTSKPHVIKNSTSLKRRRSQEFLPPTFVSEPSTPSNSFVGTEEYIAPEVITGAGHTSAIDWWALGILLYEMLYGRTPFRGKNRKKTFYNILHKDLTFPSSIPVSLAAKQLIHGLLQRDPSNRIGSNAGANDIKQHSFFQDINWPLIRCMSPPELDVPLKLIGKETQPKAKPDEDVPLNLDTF

**Q.** For “UBP1B (rice (endogenous in rice seedlings))”, which binding is on record?
**A.** Its binding is “binds”.

**Q.** With “ADH1 (rice (endogenous in rice seedlings))” as the substance, how does the binding read?
**A.** Its binding is “binds”.

**Q.** Which binding does the source give for “ABC1K10A (rice (endogenous in rice seedlings))” here?
**A.** The binding was “binds”.

**Q.** “EXO70A1 (rice (endogenous in rice seedlings))” was tested. Which binding did it give?
**A.** The binding was “binds”.

**Q.** How did the binding turn out when “Guanosine nucleotide diphosphate dissociation inhibitor GDI1 (rice (endogenous in rice seedlings))” was run?
**A.** The binding was “binds”.

**Q.** Which binding does the source give for “LECRK-IV.1 (rice (endogenous in rice seedlings))” here?
**A.** The binding was “binds”.

**Q.** For “PUP3 (rice (endogenous in rice seedlings))”, which binding is on record?
**A.** The binding was “binds”.

**Q.** TRS120 (from UniProt Q0JBY9) was tested. Which binding did it give?
**A.** The binding was “binds”.

**Q.** With “SAD2 (rice (endogenous in rice seedlings))” as the substance, how does the binding read?
**A.** Its binding is “binds”.

**Q.** How did the binding turn out when “SEC13 (rice (endogenous in rice seedlings))” was run?
**A.** Its binding is “binds”.

**Q.** How did the binding turn out when “CLASP (rice (endogenous in rice seedlings))” was run?
**A.** The binding was “binds”.

**Q.** For “RPM1/RPS3 (rice (endogenous in rice seedlings))”, which binding is on record?
**A.** The binding was “binds”.

**Q.** Which binding does the source give for “regulatory subunit of the plant AMPK, SnRK1 (rice (endogenous in rice seedlings))” here?
**A.** Its binding is “binds”.

**Q.** Which binding does the source give for “sodium transporter HKT1 (rice (endogenous in rice seedlings))” here?
**A.** The binding was “binds”.

**Q.** For “catalytic subunit of the plant AMPK, SnRK1/KIN10 (rice (endogenous in rice seedlings))”, which binding is on record?
**A.** The binding was “binds”.

**Q.** Which binding does the source give for “PUP1 (rice (endogenous in rice seedlings))” here?
**A.** The binding was “binds”.

**Q.** “P-ATPase AHA6 (rice (endogenous in rice seedlings))” was tested. Which binding did it give?
**A.** The binding was “binds”.

**Q.** With “TOPP4 (rice (endogenous in rice seedlings))” as the substance, how does the binding read?
**A.** Its binding is “binds”.

**Q.** With PHOT2 (from UniProt Q9ST27) as the substance, how does the binding read?
**A.** Its binding is “binds”.

**Q.** Which binding does the source give for “Rab2 (rice (endogenous in rice seedlings))” here?
**A.** Its binding is “binds”.

**Q.** For “Vacuolar H+-Pyrophosphatase AVP1 (rice (endogenous in rice seedlings))”, which binding is on record?
**A.** Its binding is “binds”.

**Q.** Which binding does the source give for “ATB’GAMMA (rice (endogenous in rice seedlings))” here?
**A.** Its binding is “binds”.

**Q.** Which binding does the source give for “SH3P2 (rice (endogenous in rice seedlings))” here?
**A.** Its binding is “binds”.

**Q.** For “SEC24 (rice (endogenous in rice seedlings))”, which binding is on record?
**A.** Its binding is “binds”.

**Q.** “Casein kinase 1 (rice (endogenous in rice seedlings))” was tested. Which binding did it give?
**A.** The binding was “binds”.

**Q.** Which binding does the source give for “FIERY1/HOS2 (rice (endogenous in rice seedlings))” here?
**A.** Its binding is “binds”.
